Results reported in US20080064048A1, “Methods for Selecting Proteins that are Readily Presented as Antigens on Dendritic Cells” (Medical and Biological Laboratories, Co., Ltd., priority 2004, published 2008).

System: DC2.4 cells
Test: Pulse-chase degradation of cell-bound bOVA (SA beads, SDS-PAGE, Western blot)
Format: cell-based, mouse
Protocol: Triton X-100 was used to lyse membranes. […] DC2.4 cells were pulsed with bOVA and chased. bOVA was recovered using SA beads, then separated by SDS-PAGE followed by Western blotting using SA-HRP Ctl: a control not containing inhibitors. […] Asterisks in the left panel indicate non-specific binding with SA-HRP.
Next, DC2.4 cells were incubated with bOVA for one hour, and this was then chased for up to four hours. Cell-bound bOVA was recovered from total cell lysates by streptavidin-agarose and separated by SDS-PAGE.
Depletion of Ca^2+ in the ER is known to inhibit ERAD. Thapsigargin (Tg) is known to decrease the Ca^2+ concentration in the ER lumen by binding to the ER membrane and functioning as an ionophore and to inhibit ERA D. Thus, in the presence of Tg, bOVA degradation by ERAD is predicted to be suppressed. DC2.4 cells were pulsed with bOVA in the presence of MG-132, then washed with PBS or with PBS containing 1 mM EGTA, and then chased for four hours.

Molecule | accumulated bOVA during chase with Ca2+ depletion (DC2.4, washed with PBS containing 1 mM EGTA, chase 4 h) | bOVA degradation with TAP1 knock-down (DC2.4 TAP1 knock-down) | bOVA retained during chase in VCP-knocked-down cells vs parental (DC2.4 V41 and V41-1) | bOVA degradation after re-addition of Ca2+ (DC2.4 pre-exposed to EGTA, Ca2+ 1 mM re-added) | decrease in accumulated OVA in CHIP-knocked-down cells (DC2.4 C4 and C4F-1) | decrease of accumulated OVA in Sec61α-knocked-down cells vs parental (DC2.4 S22 and S22-3)
bOVA: biotin-labeled OVA antigen (protein) GSIGAASMEFCFDVFKELKVHHANENIFYCPIAIMSALAMVYLGAKDSTRTQINKVVRFDKLPGFGDSIEAQCGTSVNVHSSLRDILNQITKPNDVYSFSLASRLYAEERYPILPEYLQCVKELYRGGLEPINFQTAADQARELINSWVESQTNGIIRNVLQPSSVDSQTAMVLVNAIVFKGLWEKAFKDEDTQAMPFRVTEQESKPVQMMYQIGLFRVASMASEKMKILELPFASGTMSMLVLLPDEVSGLEQLESIINFEKLTEWTSSNVMEERKIKVYLPRMKMEEKYNLTSVLMAMGITDVFSSSANLSGISSAESLKISQAVHAAHAEINEAGREVVGSAEAGVDAASVSEEFRADHPFLFCIKHIATNAVLFFGRCVSP | did not decrease | did not affect | retained larger amounts | restored |  | 
Chicken ovalbumin (protein, Chicken ovalbumin used as an antigen model) GSIGAASMEFCFDVFKELKVHHANENIFYCPIAIMSALAMVYLGAKDSTRTQINKVVRFDKLPGFGDSIEAQCGTSVNVHSSLRDILNQITKPNDVYSFSLASRLYAEERYPILPEYLQCVKELYRGGLEPINFQTAADQARELINSWVESQTNGIIRNVLQPSSVDSQTAMVLVNAIVFKGLWEKAFKDEDTQAMPFRVTEQESKPVQMMYQIGLFRVASMASEKMKILELPFASGTMSMLVLLPDEVSGLEQLESIINFEKLTEWTSSNVMEERKIKVYLPRMKMEEKYNLTSVLMAMGITDVFSSSANLSGISSAESLKISQAVHAAHAEINEAGREVVGSAEAGVDAASVSEEFRADHPFLFCIKHIATNAVLFFGRCVSP |  |  |  |  | slowed down | decreased more slowly
